## Results of single-concentration screens

The chains behind the UniProt entries cited, without tags or fusion partners.
UniProt P9WPC5, whole entry: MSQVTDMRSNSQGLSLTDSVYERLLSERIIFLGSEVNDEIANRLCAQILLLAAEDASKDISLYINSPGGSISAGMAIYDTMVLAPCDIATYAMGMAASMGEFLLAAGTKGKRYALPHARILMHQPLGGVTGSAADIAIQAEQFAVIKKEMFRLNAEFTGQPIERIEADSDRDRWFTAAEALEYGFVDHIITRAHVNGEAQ
UniProt P9WPC3, whole entry partner: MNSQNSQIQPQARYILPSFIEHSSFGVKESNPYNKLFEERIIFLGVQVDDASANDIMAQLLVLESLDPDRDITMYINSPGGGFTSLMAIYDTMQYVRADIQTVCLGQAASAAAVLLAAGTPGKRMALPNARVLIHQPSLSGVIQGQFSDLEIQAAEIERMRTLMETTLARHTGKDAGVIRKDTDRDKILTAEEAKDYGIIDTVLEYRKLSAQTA
UniProt P9WNZ1, whole entry: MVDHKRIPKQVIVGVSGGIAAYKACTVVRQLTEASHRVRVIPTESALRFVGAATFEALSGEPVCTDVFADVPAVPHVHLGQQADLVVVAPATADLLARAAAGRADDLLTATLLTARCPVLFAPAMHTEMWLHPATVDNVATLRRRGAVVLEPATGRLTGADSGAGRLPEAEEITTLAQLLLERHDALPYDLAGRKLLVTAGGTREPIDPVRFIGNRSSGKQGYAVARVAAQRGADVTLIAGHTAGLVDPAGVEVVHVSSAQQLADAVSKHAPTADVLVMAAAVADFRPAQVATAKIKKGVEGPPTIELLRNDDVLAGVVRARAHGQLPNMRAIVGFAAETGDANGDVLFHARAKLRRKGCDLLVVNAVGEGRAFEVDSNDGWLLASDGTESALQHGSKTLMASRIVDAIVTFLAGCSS

Results are given as percent effect.
The record does not define 0% and 100%; most values in the screen are far below 50% and negative numbers occur (in some assays of this library far below -100).
Compounds were drawn at random from those tested, without regard to their results.
Two or more numbers in one place are separate tests of the same structure; such repeats can differ widely.
A dash means the value is not listed here; it may have been measured.

ClpP1P2: 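ClpP1P2, Mycobacterium tuberculosis (UniProt P9WPC5 and UniProt P9WPC3). Protease assay of ClpP1P2, read by the AMC dye that it sets free. Tested at 50 µM. Direction is inferred from only a few compounds that gave an IC50; most scored high, so higher reads as stronger inhibition. Most other retested compounds had strongly negative values. Of about 69,000 compounds tested this way, about 10 (0.015%) reached 50% or more in at least one test.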
CoaBC: 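Coenzyme A biosynthesis protein CoaBC, Mycobacterium tuberculosis (UniProt P9WNZ1). Enzyme assay of CoaBC with a phosphate dye (Biomol Green) read at 650 nm. Tested at 30 µM. Higher reads as stronger inhibition, judged from the few compounds that gave an IC50. Most strong results did not repeat in a second test. About 67,000 compounds were tested under these conditions; 0.06% (about 40) showed 50% or more at least once.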

| # | Compound | ClpP1P2 | CoaBC |
|---|---|---|---|
| 1 | `c1cc(CN2CC[C@H]3C[C@H](c4nc(C5CC5)cs4)O[C@@H]3C2)ccn1` | -8.254 | 5.71 |
| 2 | `COc1ccc(C2CN(c3ncccn3)CCN2C(C)=O)cc1` (stereo not given) | -9.822 | -3.632 |
| 3 | `CC(=O)C1(c2ccccc2)CCN(C(=O)c2ccc3nnnn3c2)CC1` | -1.494 | 0.1267 |
| 4 | `CCCN(CC)C(=O)c1ncn2c1CN(C)S(=O)(=O)c1ccccc1-2` | 2.19 | 6.3 |
| 5 | `COCCN1CCO[C@@H]2CN(Cc3ccccc3OC)C[C@@H]2C1` | -2.175 | - |
| 6 | `CN1CC[C@]2(CN(CC3CCOCC3)C[C@H]2c2ccccc2)C1=O` | -7.426 | 4.485 |
| 7 | `Cc1nccc(C2CCCN(S(=O)(=O)N3CCOCC3)C2)n1` (stereo not given) | 12.22 | -5.263 |
| 8 | `Cc1ccc(S(=O)(=O)NC(C)(C)CN)c(F)c1` | -6.922 | -2.258 |
| 9 | `O=C1CCCC2=C1C(c1ccccc1Cl)Nc1nonc1N2` (stereo not given) | -2.618 | 6.214 |
| 10 | `CCc1nc2ccccc2c(=O)n1CC1(O)CCNCC1` | 0.8587 | 2.696 |
| 11 | `CC(=O)NCCCOc1c(C)cccc1Cl` | -1.66 | 2.386 |
| 12 | `Cc1cccc(C)c1OC1CN(Cc2cnn(C)c2)C1` | -9.147 | 1.572 |
| 13 | `CCn1nc(C)c2ccn(CC(=O)NCC3CCCO3)c(=O)c21` (stereo not given) | 1.132 | 1.324 |
| 14 | `O=C(Nc1ccc(Cn2cccn2)cc1)N1CCC(CO)CC1` | -0.9888 | 1.961 |
| 15 | `CN(CCN1CCCCC1)C(=O)c1cc(CN2CCOCC2)on1` | -5.232 | -10.87 |
| 16 | `O=C(c1ccc[nH]1)N1CCn2cc(Cn3cccn3)nc2C1` | -3.754 | 1 |
| 17 | `CN(Cc1ccccn1)C(=O)c1ccc2c(c1O)OC(C)(C)C2` | 10.93 | -4.925 |
| 18 | `O=c1oc(-c2ccc(F)cc2)nn1CN1CCN(CC2CC2)CC1` | -0.7933 | 3.742 |
| 19 | `Cc1ccc(CNCC2CCc3nnc(C(C)C)n3C2)s1` (stereo not given) | -3.406 | -5.485 |
| 20 | `COc1cc(CNc2cnn(C(C)(C)C)c(=O)c2Cl)ccn1` | 2.161 | 0.9677 |
| 21 | `CC(C)Oc1ncnc2c1CCN(Cc1ccoc1)CC2` | 3.104 | -0.9677 |
| 22 | `CO[C@@H]1CC[C@@H](N(C)C(=O)COc2ccc(F)cc2)[C@H]1O` | -7.331 | -1.178 |
| 23 | `O=C(c1ccc(S(=O)(=O)NC2CCC2)cc1)N1CC[C@H]2CNC[C@H]21` | -19.3 | 1.107 |
| 24 | `CCOc1cc(-c2cc(=O)n3c(n2)CCCCC3)ccc1O` | 2.35 | -0.1215 |
| 25 | `CC(C)(C)c1n[nH]c(C2CN(C(=O)c3csnn3)CCO2)n1` (stereo not given) | -7.422 | 4.184 |
| 26 | `Cc1cccc(C(=O)N2CCN(c3ccc(-n4cccc4)nn3)CC2)c1` | -5.243 | 7.143 |
| 27 | `CN(Cc1nnc(C2CC2)o1)C1CCN(CCc2cccs2)C1` (stereo not given) | 11.83 | 6.424 |
| 28 | `Cc1noc(C)c1-c1cccc(C2CCNCC2)n1` | -7.631 | 5.315 |
| 29 | `NC(=O)c1nnn(-c2ccc(Br)cc2)n1` | -3.841 | 0.6337 |
| 30 | `Cn1cc(C(=O)N2CCCC(C(=O)CCc3ccccc3)C2)cn1` (stereo not given) | 0.6741 | 1.899 |
| 31 | `O=C1CCC2(CCN(CC[C@H](O)c3ccccc3)CC2)CN1CCO` | 0.649 | -1.486 |
| 32 | `Cc1nc2cc(C(=O)N3CCn4c(nnc4C4CC4)C3)ccc2s1` | 1.289 | 0 |
| 33 | `CCNC(=O)c1ccc2ccc(N(CC)CC)n2c1` | 5.924 | - |
| 34 | `Cc1cccc(CN2CCC3(CC2)CC(Oc2cccnc2)C3)n1` | 1.095 | - |
| 35 | `Cc1nnc(CN(Cc2cccc(Cl)c2)C(C)C)o1` | -1.754 | -2.066 |
| 36 | `COc1c(C2SCC(=O)Nc3[nH]ncc32)cc2c(c1OC)OCO2` (stereo not given) | 0.9612 | 37.82 & 13.92 |
| 37 | `CSc1ccc(NC(=O)NCC(O)C2CC2)cc1F` (stereo not given) | -7.997 | -3.089 |
| 38 | `CC(C)C(=O)N1CCN(S(C)(=O)=O)CC2(CC(=O)N(C)C2)C1` (stereo not given) | -2.803 | 4.277 |
| 39 | `Cc1sc(CS(C)(=O)=O)nc1-c1ccc(Cl)cc1` | -10.86 | 19.42 |
| 40 | `CC(C)(C)c1n[nH]c(C2CN(Cc3nnc(C4CC4)o3)CCO2)n1` (stereo not given) | -2.806 | 3.412 |
| 41 | `Cc1nn(C)c(C)c1C1COCCN1C(=O)Cc1cccc(F)c1` (stereo not given) | 10.3 | -4.478 |
| 42 | `c1ccc(-c2nc(CCNCc3ccncc3)co2)cc1` | -9.273 | 1.347 |
| 43 | `O=C1CN(C(=O)c2ccc(Cl)cc2)CC(O)CN1Cc1cccs1` (stereo not given) | -2.129 | 1.937 |
| 44 | `COC(=O)C(c1ccccc1)N(C)C(=O)c1ccnc(C)n1` (stereo not given) | -10.89 | 8.323 |
| 45 | `COc1ccccc1CC(=O)N1CCC(NCc2ccccn2)CC1` | -22.55 | 7.098 |
| 46 | `CCOc1ccccc1CC(=O)N1C[C@@H](C(=O)O)[C@H](C2CC2)C1` | -12.64 | 9.091 |
| 47 | `CC(C)N(C)Cc1cnc2n1CCN(Cc1cccc(C#N)c1)C2` | 9.407 | 0.9223 |
| 48 | `Cc1ccc(C(=O)N2CCc3ncc(Cn4cccn4)n3CC2)o1` | -5.346 | -14.43 |
| 49 | `Cc1cccc(C(=O)N2CCO[C@H]3[C@H](OCCN(C)C)CC[C@@H]32)n1` | -9.639 | 0.4938 |
| 50 | `CC(=O)N1CCc2[nH]cnc2C12CCN(CC1CCOC1)CC2` (stereo not given) | -1.697 | 14.09 |
| 51 | `CCOCCCNc1nc(O)cc(C2CC(=O)N(C)C2)n1` (stereo not given) | -3.171 | 1.944 |
| 52 | `CCN1CCCC(C)(C(=O)NCCc2n[nH]c(=O)[nH]2)C1` (stereo not given) | -10.04 | 2.314 |
| 53 | `CCC(C(=O)NCC1=CCCN(C)C1)c1ccccc1` (stereo not given) | -0.4023 | 3.671 |
| 54 | `CCn1cc(S(=O)(=O)N2CCCC3(CC=CNC3=O)C2)c(C)n1` (stereo not given) | -10.36 | 0.4751 |
| 55 | `CS(=O)(=O)N1CCC(NC(=O)COc2ccccc2Cl)CC1` | -7.296 | -8.311 |
| 56 | `O=C(O)c1nnn(-c2ccccc2F)c1-c1ccncc1` | 13.12 | 0.2532 |
| 57 | `COc1ccccc1-n1nc(-c2ccco2)n(CC(N)=O)c1=O` | -7.319 | 8.009 |
| 58 | `CCN1CCN(c2ccc(C(=O)NC(C)C(=O)N(C)C)cc2)CC1` (stereo not given) | -4.447 | 0 |

The last 4 entries again:

Compound	ClpP1P2	CoaBC
CS(=O)(=O)N1CCC(NC(=O)COc2ccccc2Cl)CC1	-7.296	-8.311
O=C(O)c1nnn(-c2ccccc2F)c1-c1ccncc1	13.12	0.2532
COc1ccccc1-n1nc(-c2ccco2)n(CC(N)=O)c1=O	-7.319	8.009
CCN1CCN(c2ccc(C(=O)NC(C)C(=O)N(C)C)cc2)CC1 (stereo not given)	-4.447	0

Data taken from ChEMBL document CHEMBL3988442, “University of Dundee, Small-Polar-MMV Screening Library” (2021).